# Reference: PubChem BioAssay AID330 (DTP/NCI, 2004)
# The list does not hold the whole screen: it gathers tests that were run many times, whatever their T/C, doses with no T/C, and many T/C values between a quarter and a half above the control. Further doses and runs are listed elsewhere. T/C gives the treated animals as a percentage of the vehicle group. Some entries give survivors of the animals treated and no T/C: the source holds a T/C of zero for them, seemingly a mark for toxic or unscored doses. Some doses without a T/C left all or most animals alive at the check, yet need not have been tolerated: the source hardly ever lists a survival T/C far under the control, and the zero likely stands for such cases as well. Counts of survivors are from the toxicity check (mostly the fifth day) where no day follows; animals may have died later. Schedules are NCI's codes, read here as Q, the interval in days (D) or hours (H), X, the number of doses. Signs of the kind (2×) give the number of equal values in this list. Some doses were run more than once; the results are listed from low to high. For survival time, the PubChem record calls one and a half times the control and up active, and a quarter to a half above the control has no call in these data; cut-offs in other NCI protocols can differ.
# Test system: P388 leukemia ip, CD2F1 mice, survival T/C
# Assay: NCI In Vivo Anticancer Drug Screen. Data for tumor model P388 Leukemia (intraperitoneal) in CD2F1 (CDF1) mice
# Conditions: T/C endpoint: median survival time, higher T/C = longer survival
# [1] = dose: 15.0 mg/kg/injection, schedule: Q01DX005 (ip), vehicle: saline with Tween-80
# [2] = dose: 30.0 mg/kg/injection, schedule: Q01DX005 (ip), vehicle: saline with Tween-80
# [3] = dose: 60.0 mg/kg/injection, schedule: Q01DX005 (ip), vehicle: saline with Tween-80
# [4] = dose: 120.0 mg/kg/injection, schedule: Q01DX005 (ip), vehicle: saline with Tween-80
# [5] = dose: 240.0 mg/kg/injection, schedule: Q01DX005 (ip), vehicle: saline with Tween-80
# [6] = dose: 25.0 mg/kg/injection, schedule: Q01DX009 (ip), vehicle: saline
# [7] = dose: 240.0 mg/kg/injection, schedule: Q01DX005 (ip), vehicle: saline
# [8] = dose: 100.0 mg/kg/injection, schedule: Q01DX009 (ip), vehicle: Klucel (hydroxypropylcellulose) (HPC)
# [9] = dose: 200.0 mg/kg/injection, schedule: Q01DX009 (ip), vehicle: Klucel (hydroxypropylcellulose) (HPC)
# [10] = dose: 100.0 mg/kg/injection, schedule: Q01DX009 (ip), vehicle: saline with Tween-80
# [11] = dose: 400.0 mg/kg/injection, schedule: Q04DX003 (ip), vehicle: saline
structure (smiles),measurement,setting,value
CCC12C=CCN3CC[C@@]4(c5cc([C@@]6(C(=O)OC)C[C@@H]7CN(CCc8c6[nH]c6ccccc86)C[C@](O)(CC)C7)c(OC)cc5N(C)[C@H]4[C@@](O)(C(=O)NCCCCCCCCCCCC(=O)O)[C@@H]1O)C32 (stereo partly specified),survivor count,"dose: 22.5 mg/kg/injection, schedule: Q01DX001 (ip), vehicle: other",2 of 6
same,survivor count,"dose: 22.5 mg/kg/injection, schedule: Q01DX001 (ip), vehicle: saline",2 of 6
same,survivor count,"dose: 45.0 mg/kg/injection, schedule: Q01DX001 (ip), vehicle: other",0 of 6
same,survivor count,"dose: 45.0 mg/kg/injection, schedule: Q01DX001 (ip), vehicle: saline",2 of 6
same,survivor count,"dose: 90.0 mg/kg/injection, schedule: Q01DX001 (ip), vehicle: other",0 of 6
same,survivor count,"dose: 90.0 mg/kg/injection, schedule: Q01DX001 (ip), vehicle: saline with Tween-80",2 of 6
same,survivor count,"dose: 90.0 mg/kg/injection, schedule: Q01DX001 (ip), vehicle: saline",0 of 6
Nc1nc(N)c2nc(CNc3ccc(C(=O)NC(CCC(=O)O)C(=O)O)cc3F)cnc2n1 (stereo unspecified),T/C,"dose: 0.47 mg/kg/injection, schedule: Q01DX005 (ip), vehicle: saline with Tween-80",136 % of control
same,T/C,"dose: 0.93 mg/kg/injection, schedule: Q01DX005 (ip), vehicle: saline with Tween-80",145 % of control
same,T/C,"dose: 1.87 mg/kg/injection, schedule: Q01DX005 (ip), vehicle: saline with Tween-80",149 % of control
same,T/C,"dose: 3.75 mg/kg/injection, schedule: Q01DX005 (ip), vehicle: saline with Tween-80, evaluated on day 20",157 % of control
same,T/C,"dose: 3.75 mg/kg/injection, schedule: Q01DX005 (ip), vehicle: saline with Tween-80, evaluated on day 30",169 and 181 % of control
same,survivor count,"dose: 3.75 mg/kg/injection, schedule: Q01DX005 (ip), vehicle: saline with Tween-80",6 of 6
same,survivor count,"dose: 7.5 mg/kg/injection, schedule: Q01DX005 (ip), vehicle: saline with Tween-80",6 of 6 (2×)
same,T/C,[1],90 % of control
same,survivor count,[1],6 of 6 (2×)
same,survivor count,[2],6 of 6
same,survivor count,[3],5 of 6 and 6 of 6
same,survivor count,[4],6 of 6
same,survivor count,[5],6 of 6
CC12CC3OC(=O)C1COC14OC5(C2C1=O)C(O)(CCC1C4CC(O)C2(O)CC=CC(=O)C12C)C(=O)OC35C (stereo unspecified),survivor count,"dose: 96.0 mg/kg/injection, schedule: Q01DX009 (ip), vehicle: Klucel (hydroxypropylcellulose) (HPC)",3 of 6
O=P(N1CCCC1)(N1CC1)N1CC1,T/C,"dose: 5.5 mg/kg/injection, schedule: Q04DX003 (ip), vehicle: saline",140 % of control
same,survivor count,[6],6 of 6
COc1c(OC2OC(CO)C(O)C(O)C2O)cc2c(c1OC)-c1ccc(OC)c(=O)cc1C(NC(C)=O)CC2 (stereo unspecified),T/C,"dose: 100.0 mg/kg/injection, schedule: Q01DX005 (ip), vehicle: saline",126 and 128 % of control
same,survivor count,"dose: 200.0 mg/kg/injection, schedule: Q01DX005 (ip), vehicle: saline",2 of 5
CN(C)CCCNc1nnc(NCCCN(C)C)c2cc3ccccc3cc12,survivor count,"dose: 60.0 mg/kg/injection, schedule: Q01DX005 (ip), vehicle: saline",0 of 6
same,survivor count,"dose: 120.0 mg/kg/injection, schedule: Q01DX005 (ip), vehicle: saline",0 of 6
same,survivor count,[7],0 of 6
NC(=O)c1cc([N+](=O)[O-])cnc1Sc1ncccn1,survivor count,[8],0 of 6
same,survivor count,[9],0 of 6
[CH3][Sn]([CH3])([CH3])[O][N+](=O)[O-],survivor count,"dose: 1.5 mg/kg/injection, schedule: Q01DX009 (ip), vehicle: saline",5 of 6
same,survivor count,"dose: 3.0 mg/kg/injection, schedule: Q01DX009 (ip), vehicle: saline",0 of 6
CN=C(NCCCOC)c1ccc(NC(=O)Nc2ccc(NC(=O)Nc3ccc(C(=NC)NCCCOC)cc3)cc2)cc1,T/C,"dose: 25.0 mg/kg/injection, schedule: Q01DX005 (ip), vehicle: Klucel (hydroxypropylcellulose) (HPC)",131 % of control
same,survivor count,"dose: 100.0 mg/kg/injection, schedule: Q01DX005 (ip), vehicle: Klucel (hydroxypropylcellulose) (HPC)",6 of 6
same,survivor count,"dose: 200.0 mg/kg/injection, schedule: Q01DX005 (ip), vehicle: Klucel (hydroxypropylcellulose) (HPC)",0 of 6
O=C1C=C(C2=CC(=O)c3cccc(O)c3C2=O)C(=O)c2c(O)cccc21,survivor count,"dose: 25.0 mg/kg/injection, schedule: Q01DX009 (ip), vehicle: Klucel (hydroxypropylcellulose) (HPC)",1 of 6
same,survivor count,"dose: 50.0 mg/kg/injection, schedule: Q01DX009 (ip), vehicle: Klucel (hydroxypropylcellulose) (HPC)",0 of 6
same,survivor count,[8],0 of 6
same,survivor count,[9],0 of 6
O=C1OC(c2ccccc2)=N/C1=C\c1ccc(Br)cc1,survivor count,"dose: 50.0 mg/kg/injection, schedule: Q01DX005 (ip), vehicle: Klucel (hydroxypropylcellulose) (HPC)",5 of 5
NNc1ncnc2c1ncn2C1OC(CO)C(O)C1O (stereo unspecified),T/C,"dose: 66.0 mg/kg/injection, schedule: Q01DX009 (ip), vehicle: saline with Tween-80",145 % of control
same,T/C,[10],145 % of control
same,survivor count,[10],6 of 6
same,survivor count,"dose: 150.0 mg/kg/injection, schedule: Q01DX009 (ip), vehicle: saline with Tween-80",3 of 6 and 5 of 6
same,survivor count,"dose: 200.0 mg/kg/injection, schedule: Q01DX009 (ip), vehicle: saline with Tween-80",2 of 6
same,survivor count,[11],0 of 6
CC(=O)NC(Cc1cc(I)c(O)c(I)c1)C(=O)O (stereo unspecified),survivor count,"dose: 400.0 mg/kg/injection, schedule: Q01DX009 (ip), vehicle: saline",2 of 6
Nc1ccn(C2OC(COP(=O)(O)O)C(O)C2O)c(=O)n1 (stereo unspecified),T/C,"dose: 200.0 mg/kg/injection, schedule: Q04DX003 (ip), vehicle: saline with Tween-80",145 % of control
O=C1C=C2C=CC3CC2(O1)C1CCCCN31 (stereo unspecified),survivor count,"dose: 5.0 mg/kg/injection, schedule: Q01DX010 (ip), vehicle: saline",7 of 7
same,survivor count,"dose: 40.0 mg/kg/injection, schedule: Q01DX010 (ip), vehicle: saline",6 of 7
same,survivor count,"dose: 200.0 mg/kg/injection, schedule: Q01DX010 (ip), vehicle: saline",0 of 7 (2×)
COc1ccc2c(NCCCCCCCCCCNc3c4ccccc4nc4cc(OC)ccc34)c3ccccc3nc2c1,T/C,"dose: 0.62 mg/kg/injection, schedule: Q01DX009 (ip), vehicle: other",144 % of control
same,T/C,"dose: 1.25 mg/kg/injection, schedule: Q01DX009 (ip), vehicle: other",145 % of control
same,survivor count,"dose: 10.0 mg/kg/injection, schedule: Q01DX009 (ip), vehicle: other",5 of 6
same,survivor count,"dose: 20.0 mg/kg/injection, schedule: Q01DX009 (ip), vehicle: other",0 of 6
CNC(=O)N(N=O)c1[nH]c(=O)ncc1Cl,survivor count,[5],3 of 6
CCCCCc1nc(N)nc(-c2nc(N)nc(CCCCC)c2C)c1C,survivor count,[7],3 of 6
COC(=O)C1c2ccccc2CC(=O)N1NC(C)=O (stereo unspecified),survivor count,[9],1 of 6
N#CC1N(C(=O)Oc2ccccc2)c2ccccc2N1C(=O)Oc1ccccc1,survivor count,[2],6 of 6
same,survivor count,[3],6 of 6
same,survivor count,[4],5 of 6
same,survivor count,[5],6 of 6
CN1CCC/C1=C/C(=O)c1ccc(Cl)cc1,T/C,[11],125 % of control
CCCCNP(=O)(N1CC1)N1CC1,T/C,"dose: 1.5 mg/kg/injection, schedule: Q04DX003 (ip), vehicle: saline",130 % of control
same,T/C,"dose: 3.0 mg/kg/injection, schedule: Q04DX003 (ip), vehicle: saline",145 % of control
same,survivor count,[6],6 of 6
